Measurements taken from the supplement of paper PMC12009310.
Counter-ions that a name gives are not always drawn. ± gives the standard deviation of the averaged measurements. This is one part of the list. Part of the spread comes from offsets between plates or batches.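 The cells are a mouse kidney inner medullary collecting duct line, silenced either for the ciliary gene Rpgrip1l or with a non-targeting control siRNA.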

Tested on: mIMCD3
Assay: robust z score of cilia incidence (% cells with single cilium) vs plate controls; higher = more ciliated cells (rescue of cilia loss)
Details: 10 µM; 48 h; siRNA: siRpgrip1l

SMILES | robust z score of cilia incidence
COc1ccc(NC(=O)c2cc(OCCCN(C)C)nn2Cc2ccccc2)cc1 [CFM 1571 hydrochloride] | -29.4 ± 5.7
CC(=O)N(OCc1ccccc1)[C@H]1c2cc(C#N)ccc2OC(C)(C)[C@H]1O | -5.64 ± 1.9
Cc1ccc(/C=N/NC(=O)c2ccccc2Oc2ccccc2)o1 | -20 ± 6.5
N#Cc1ccc(NCCNCC(=O)N2CCC[C@H]2C#N)nc1 [NVP DPP 728 dihydrochloride] | -4.58 ± 2.7
Cc1ccc2c(c1)C(=O)C1(O)CCN(c3ccccc3)C1=N2 (racemic) [(±)-Blebbistatin] | -8.69 ± 5.6
CCc1ccc2c(-c3cccc(Cl)c3)nc(=O)n(CC)c2n1 | -34.6 ± 22
CC(C)NC[C@H](O)COc1cccc2[nH]ccc12 [(S)-(-)-Pindolol] | -18.8 ± 0.81
CC1(C)Oc2ccc(C#N)cc2[C@@H](N2CCCC2=O)[C@@H]1O [Levcromakalim] | -4.8 ± 0.57
Nc1nc2ccc(OC(F)(F)F)cc2s1 [Riluzole hydrochloride] | -12.2 ± 0.97
CC1(C)NC(=O)N(c2ccc([N+](=O)[O-])c(C(F)(F)F)c2)C1=O [Nilutamide] | -10.9 ± 4.6
OCc1cc(C(O)CNCCCCCCOCCCCc2ccccc2)ccc1O (centres undefined) [Salmeterol] | -282 ± 170
c1cc2c(cc1C1CCCCC1)c1c3n2CCNC3CCC1 (centres undefined) [Tetrindole mesylate] | -39.9 ± 2.3
O=C(O)c1ccc(-c2c[nH]c3ncc(-c4ccccc4)cc23)cc1C1CCCC1 | -25.2 ± 17
CNC(=O)[C@H]1O[C@@H](n2cnc3c(NCc4cccc(I)c4)nc(Cl)nc32)[C@H](O)[C@@H]1O | -23.9 ± 0.4

Retrieved one by one from above (two):
SMILES | robust z score of cilia incidence
COc1ccc(NC(=O)c2cc(OCCCN(C)C)nn2Cc2ccccc2)cc1 [CFM 1571 hydrochloride] | -29.4 ± 5.7
CC1(C)NC(=O)N(c2ccc([N+](=O)[O-])c(C(F)(F)F)c2)C1=O [Nilutamide] | -10.9 ± 4.6
